The text below walks through data of publication doi:10.1101/2020.06.23.167247.

The target of assay [1] is T1, GDP-D-mannose epimerase (GME), yeast two-hybrid fusions (Arabidopsis thaliana) (UniProt Q93VR3).
T1 sequence: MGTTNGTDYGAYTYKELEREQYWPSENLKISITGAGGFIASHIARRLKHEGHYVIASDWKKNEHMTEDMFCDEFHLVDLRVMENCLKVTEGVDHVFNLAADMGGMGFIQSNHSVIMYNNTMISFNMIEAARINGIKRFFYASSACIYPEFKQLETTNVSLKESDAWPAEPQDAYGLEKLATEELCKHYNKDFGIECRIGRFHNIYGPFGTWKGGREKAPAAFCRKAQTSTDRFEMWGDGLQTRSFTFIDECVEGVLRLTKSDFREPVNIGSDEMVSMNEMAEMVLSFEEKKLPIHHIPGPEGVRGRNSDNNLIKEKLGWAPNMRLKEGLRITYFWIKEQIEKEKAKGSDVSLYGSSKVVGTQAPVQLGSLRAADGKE
Description: two-hybrid.

In assay [2] the target is T2, GDP-L-galactose phosphorylase (VTC2), yeast two-hybrid fusions (Arabidopsis thaliana) (UniProt Q8RWE8).
T2 sequence: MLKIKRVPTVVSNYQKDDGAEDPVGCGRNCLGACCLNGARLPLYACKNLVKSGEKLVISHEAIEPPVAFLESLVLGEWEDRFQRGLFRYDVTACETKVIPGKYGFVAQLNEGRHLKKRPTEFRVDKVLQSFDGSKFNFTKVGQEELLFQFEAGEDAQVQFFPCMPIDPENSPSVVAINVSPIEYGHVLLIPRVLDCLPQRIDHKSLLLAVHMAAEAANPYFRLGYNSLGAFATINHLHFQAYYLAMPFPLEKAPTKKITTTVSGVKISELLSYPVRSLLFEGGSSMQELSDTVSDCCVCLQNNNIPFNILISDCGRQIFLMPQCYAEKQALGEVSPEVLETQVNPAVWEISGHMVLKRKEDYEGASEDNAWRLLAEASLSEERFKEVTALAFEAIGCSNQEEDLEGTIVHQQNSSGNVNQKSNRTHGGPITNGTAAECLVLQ
The assay is described as follows: two-hybrid.

Assay [3] concerns the target T3, L-galactono-1,4-lactone dehydrogenase (L-GalLDH), yeast two-hybrid fusions (Arabidopsis thaliana) (UniProt Q9SU56).
T3 sequence: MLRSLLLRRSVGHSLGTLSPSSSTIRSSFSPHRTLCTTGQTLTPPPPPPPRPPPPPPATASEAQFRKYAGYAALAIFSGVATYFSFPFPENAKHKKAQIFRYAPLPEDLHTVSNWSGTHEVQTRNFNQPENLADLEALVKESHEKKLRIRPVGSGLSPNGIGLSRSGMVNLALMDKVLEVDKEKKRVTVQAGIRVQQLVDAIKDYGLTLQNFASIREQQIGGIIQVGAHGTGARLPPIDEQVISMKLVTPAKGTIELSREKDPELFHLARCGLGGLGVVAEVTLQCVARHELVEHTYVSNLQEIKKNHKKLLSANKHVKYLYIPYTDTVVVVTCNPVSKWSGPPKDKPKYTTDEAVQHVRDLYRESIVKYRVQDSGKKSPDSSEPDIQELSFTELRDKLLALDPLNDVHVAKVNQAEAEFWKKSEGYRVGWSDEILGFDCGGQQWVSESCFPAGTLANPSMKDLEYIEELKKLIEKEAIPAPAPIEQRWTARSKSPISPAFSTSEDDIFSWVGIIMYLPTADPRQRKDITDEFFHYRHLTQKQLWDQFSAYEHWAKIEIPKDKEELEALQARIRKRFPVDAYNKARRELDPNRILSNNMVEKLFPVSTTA
The assay is described as follows: two-hybrid.

Assay [4] deals with T4, L-galactose 1-phosphate phosphatase (VTC4), yeast two-hybrid fusions (Arabidopsis thaliana) (UniProt Q9M8S8).
T4 sequence: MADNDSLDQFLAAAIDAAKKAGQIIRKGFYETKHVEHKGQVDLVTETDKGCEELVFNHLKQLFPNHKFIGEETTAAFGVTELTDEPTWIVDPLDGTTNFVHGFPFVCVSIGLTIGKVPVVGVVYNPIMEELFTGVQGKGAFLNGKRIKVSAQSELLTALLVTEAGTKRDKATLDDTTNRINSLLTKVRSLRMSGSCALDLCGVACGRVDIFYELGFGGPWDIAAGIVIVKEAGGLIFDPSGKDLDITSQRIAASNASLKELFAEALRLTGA
The assay is described as follows: two-hybrid.

The target in assay [5] is T5, L-galactose dehydrogenase (L-GalDH), yeast two-hybrid fusions (Arabidopsis thaliana) (UniProt O81884).
T5 sequence: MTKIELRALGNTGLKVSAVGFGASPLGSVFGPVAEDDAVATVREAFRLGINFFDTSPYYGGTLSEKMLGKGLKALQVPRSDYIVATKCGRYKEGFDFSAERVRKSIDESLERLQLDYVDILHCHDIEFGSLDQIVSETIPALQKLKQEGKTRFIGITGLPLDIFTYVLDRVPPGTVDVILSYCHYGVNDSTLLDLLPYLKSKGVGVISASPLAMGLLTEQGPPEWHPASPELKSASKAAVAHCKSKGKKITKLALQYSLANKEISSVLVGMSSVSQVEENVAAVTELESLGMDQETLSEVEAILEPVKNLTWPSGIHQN
The assay is described as follows: two-hybrid.

The target in assay [6] is VTC1-GFP (Arabidopsis thaliana). The assay is described as follows: co-IP.

No constants are given. Whether binding was seen depends on the method and setting. For some of these results: In cells and extracts the contact can be indirect. For some of these results: A result given as binding can be weak or reduced; the word gives no strength. Sequences can lack the tags named with a protein.

Take “GDP-D-mannose pyrophosphorylase (VTC1), yeast two-hybrid fusions (Arabidopsis thaliana) (enzyme)”: the binding result in assay [1], in assay [2], in assay [3], in assay [4] and in assay [5] was “no binding” throughout.

B1: GME-HA (enzyme, UniProt Q93VR3 1-377)
chain: MGTTNGTDYGAYTYKELEREQYWPSENLKISITGAGGFIASHIARRLKHEGHYVIASDWKKNEHMTEDMFCDEFHLVDLRVMENCLKVTEGVDHVFNLAADMGGMGFIQSNHSVIMYNNTMISFNMIEAARINGIKRFFYASSACIYPEFKQLETTNVSLKESDAWPAEPQDAYGLEKLATEELCKHYNKDFGIECRIGRFHNIYGPFGTWKGGREKAPAAFCRKAQTSTDRFEMWGDGLQTRSFTFIDECVEGVLRLTKSDFREPVNIGSDEMVSMNEMAEMVLSFEEKKLPIHHIPGPEGVRGRNSDNNLIKEKLGWAPNMRLKEGLRITYFWIKEQIEKEKAKGSDVSLYGSSKVVGTQAPVQLGSLRAADGKE
Consider B1, for which, in assay [6], the binding result is reported as “binds”.

B2: L-GalDH-HA (enzyme, UniProt O81884 1-319)
chain: MTKIELRALGNTGLKVSAVGFGASPLGSVFGPVAEDDAVATVREAFRLGINFFDTSPYYGGTLSEKMLGKGLKALQVPRSDYIVATKCGRYKEGFDFSAERVRKSIDESLERLQLDYVDILHCHDIEFGSLDQIVSETIPALQKLKQEGKTRFIGITGLPLDIFTYVLDRVPPGTVDVILSYCHYGVNDSTLLDLLPYLKSKGVGVISASPLAMGLLTEQGPPEWHPASPELKSASKAAVAHCKSKGKKITKLALQYSLANKEISSVLVGMSSVSQVEENVAAVTELESLGMDQETLSEVEAILEPVKNLTWPSGIHQN
In the case of B2, the binding result in assay [6] is recorded as “binds”.
